# Reference: PubChem BioAssay AID2685 (National Center for Advancing Translational Sciences (NCATS), 2010)
# Some of the results follow. Further columns of the screen follow, without active or inactive calls. Compounds called inactive in the main read-out are mostly missing here. Words in brackets tell the shape of the fitted curve; partial curves, single points and poor fits give uncertain potencies.
# Experiment: qHTS Assay for Lipid Storage Modulators in Drosophila S3 Cells;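 as to cell number change: cells counted by Cell Tracker Red CMTPX staining in the red channel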
# Conditions: BODIPY lipid droplet fluorescence, 18-24 h; for cell number change: measured here: cell count max response, cells fed with added oleic acid
# Method in brief: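 Drosophila S3 cells got compounds at several concentrations plus oleic acid (400 uM solution). Laser-scanning cytometry with 488 nm excitation read lipid droplets at 500-530 nm and cells at 575-640 nm. Percent activity was relative to 20 uM Triacsin C.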
# [1] = measured here: cell number channel AC50, cells fed with added oleic acid
# [2] = measured here: lipid fluorescence (Fed channel) AC50, cells fed with added oleic acid
SMILES,cell number change,AC50 [1],AC50 [2]
COc1cccc(NC(=O)Cn2c(-c3cncs3)nc3ccccc32)c1,31.1%,"0.461 µM [rising, full curve, poor fit]",–
Cn1nc(-c2ccc(Cl)cc2)c2cc(C(=O)NCCCN3CCOCC3)sc21,40.7%,"20.6 µM [rising, single point]",–
Cc1sc2nc(C3CC3)nc(SCC(=O)N3c4ccccc4CC3C)c2c1C (configuration not stated),6.19%,–,–
CCOC(=O)c1c(C)[nH]c(C)c1S(=O)(=O)NCCCN1CCOCC1,16.4%,–,"29.1 µM [rising, partial curve, poor fit]"
COc1ccc(OCC(=O)Nc2c3c(nn2-c2ccc(OC)cc2)CS(=O)(=O)C3)cc1,-28.2%,–,"20.6 µM [falling, single point]"
Cc1cc(C)c(C(=O)C(C)OC(=O)Cc2n[nH]c(=O)c3ccccc23)cc1C (configuration not stated),13%,–,"0.651 µM [rising, full curve]"
O=C(O)Cn1cc2c(n1)CCCCC2,-9.37%,–,"0.00461 µM [rising, full curve, poor fit]"
CC(C)CNC(=S)NNC(=O)c1ccc2c(c1)OCO2,47.5%,"20.6 µM [rising, partial curve, poor fit]","16.4 µM [rising, partial curve, poor fit]"
CNC(=S)N/N=C/c1c(C)nn(-c2ccccc2)c1Cl,3.76%,–,"0.13 µM [rising, full curve, poor fit]"
CC(C)c1cc(C(=O)N2CCCC(CCC(=O)NCc3ccccc3F)C2)n(C)n1 (configuration not stated),-22.4%,–,"8.2 µM [falling, partial curve]"
O=C(c1c(O)c2ccccc2oc1=O)C1CCC1,-17.5%,–,"29.1 µM [falling, single point]"
Nc1nnnn1/N=C/c1ccco1,7.76%,–,"6.51 µM [falling, single point]"
CCn1c(COc2ccccc2C)nnc1SCC(=O)Nc1cc(C)on1,-14.2%,"6.51 µM [falling, single point]",–
COc1ccc(-n2nc(C(=O)NCC(=O)N3CCN(C)CC3)c3ccccc3c2=O)cc1,4.5%,–,"29.1 µM [rising, single point]"
O=C(COC(=O)CCC1CCCC1)Nc1ccc(Cl)cn1,41.7%,–,–
COC(=O)Cc1cc(=O)oc2cc(O)ccc12,-31.1%,"5.17 µM [falling, full curve, poor fit]","5.8 µM [falling, full curve]"
CCC(=O)c1ccc(N2CCN(C(=O)COc3ccccc3F)CC2)c(F)c1,-28.2%,–,"16.4 µM [falling, single point]"
O=C(NCc1cccc(Cl)c1)C1CCC(=O)N(CC2CCCCC2)C1 (configuration not stated),28.6%,–,–
O=C(OCCOCCN=C1NS(=O)(=O)c2ccccc21)c1ccccc1,21%,–,–
CCNC(=S)Nc1nc2c(cc1C(=O)OCC)CCCC2,24.3%,"0.326 µM [rising, partial curve, poor fit]","4.61 µM [rising, full curve, poor fit]"
Cc1cc(C)c(N(C(=O)c2csnn2)C(C(=O)NC(C)(C)C)c2ccncc2)c(C)c1 (configuration not stated),14.9%,–,"0.082 µM [falling, full curve, poor fit]"

SMILES,cell number change,AC50 [1],AC50 [2]
C/C=N/NC(=O)CCNC(=O)c1ccccc1,–,–,"1.16 µM [rising, partial curve, poor fit]"
Cc1ccc(C)c(CSc2nnc([C@@H]3CCCN3)o2)c1,46.2%,"29.1 µM [rising, single point]",–
COc1ccc(OC)c(S(=O)(=O)Nc2c(F)cccc2F)c1,-5.21%,–,"0.058 µM [rising, full curve, poor fit]"
CC1(S(=O)(=O)O)CC(=O)c2ccccc2C1=O (configuration not stated),-25%,–,–
CC(=O)N1CCN(C(=O)CNC(=O)c2ccc(Br)o2)CC1,31.1%,"8.2 µM [rising, partial curve, poor fit]",–
Cc1cc(C)c2c(-n3cccc3)n[nH]c2n1,67.9%,–,–
O=C(Nc1cccc(Cl)c1)c1ccc(NCC2CCCO2)c([N+](=O)[O-])c1 (configuration not stated),13.5%,–,–
Cc1ccc(C(=O)C(c2ccccc2)N2Cc3ccccc3C2=N)cc1 (configuration not stated),4.31%,"2.91 µM [rising, partial curve, poor fit]",–
Cc1ccc(S(=O)(=O)Nc2ccc(C(=O)OCC(=O)N(CCC#N)c3ccccc3)cc2)cc1C,6.38%,"0.0259 µM [falling, full curve, poor fit]","0.517 µM [falling, full curve, poor fit]"
Cn1nnnc1Sc1ncnc2scc(-c3cccc(S(C)(=O)=O)c3)c12,-16.6%,–,"0.0058 µM [rising, full curve, poor fit]"
Cc1ccc(S(=O)(=O)CC(=O)Nc2nc3ccc(S(N)(=O)=O)cc3s2)cc1,11%,–,"0.58 µM [rising, single point]"
Cc1ccc(-n2nnnc2SCC(=O)c2cc(C)n(CC3CCCO3)c2C)cc1 (configuration not stated),-6.52%,–,"4.11 µM [rising, single point]"
O=C(Nc1ccccc1)c1ccc2c(c1)OCO2,71.8%,"29.1 µM [rising, single point]",–
COc1cccc(CNC(=O)CCNC(=O)N2CCn3c2nc2ccccc23)c1,8.47%,–,–
COc1ccc(CNc2n[nH]c(NCc3ccc(OC)c(OC)c3)n2)cc1OC,17%,–,"18.4 µM [rising, single point]"
COc1cc(-c2nn3c(-c4ccccn4)nnc3s2)cc(OC)c1OC,2.28%,–,"0.82 µM [rising, full curve]"
CC(=O)c1ccc(OCCn2c(SCC(=O)O)nc3ccccc32)cc1,-6.04%,–,–
COc1ccc(S(=O)(=O)N(CC(=O)O)c2ccccn2)cc1,33.1%,"14.6 µM [rising, partial curve, poor fit]",–
COc1ccc(NS(=O)(=O)c2ccc(Br)s2)cc1OC,-37.1%,"29.1 µM [falling, single point]","1.16 µM [rising, single point]"
COc1ccc(C(=O)N/N=C/c2c(CO)cnc(C)c2O)cc1,27.3%,–,"29.1 µM [rising, single point]"
O=C(Nc1cccc(Cl)c1)OC1CCCCc2cccnc21 (configuration not stated),17.7%,–,"14.6 µM [rising, partial curve]"

SMILES,cell number change,AC50 [1],AC50 [2]
O=C(COc1ccccc1)Nc1ccc(S(=O)(=O)Nc2ccccn2)cc1,9.13%,–,"6.51 µM [rising, single point]"
O=C(c1cc([N+](=O)[O-])ccc1Cl)N1CCN(Cc2ccccc2)CC1,-30.7%,"29.1 µM [falling, partial curve, poor fit]","0.58 µM [rising, single point]"
CCCC(=O)OCCNc1cc(SCc2ccco2)c2nonc2c1[N+](=O)[O-],-11.5%,–,"29.1 µM [falling, single point]"
COC(=O)c1c(O)cc(=O)n2c1CCCCC2,-44.5%,–,–
Cc1nc(C)c(/C(O)=C\c2nc3ccc([N+](=O)[O-])cc3oc2=O)o1,3.79%,–,"23.1 µM [falling, single point]"
CCCCNC(=O)c1ccccc1NC(=O)CN(c1ccccc1)S(=O)(=O)N(C)C,17.8%,–,"5.8 µM [rising, full curve]"
COc1ccc(Nc2nc(C)cc(C)c2C(N)=O)cc1,4.09%,–,–
FC(F)C(F)(F)Oc1cccc(-c2n[nH]c(=S)n2Cc2ccccc2)c1,-35.7%,"29.1 µM [falling, single point]","29.1 µM [falling, single point]"
CC(=O)N1CCN(c2ccc(NC(=O)c3ccc(Cl)c([N+](=O)[O-])c3)cc2)CC1,-5.63%,–,"29.1 µM [rising, single point]"
Cc1ccccc1OCC(=O)Nc1ccc(S(=O)(=O)N2CCCC2)cc1,-45.2%,"18.4 µM [falling, single point]","25.9 µM [falling, single point]"
O=C1CC(c2ccccc2)CC(O)=C1C=NCc1ccc(Cl)c(Cl)c1 (configuration not stated),-4.01%,"3.26 µM [rising, single point]","3.26 µM [rising, partial curve, poor fit]"
Nc1cccc2cc(-c3ccccc3)oc12,-8.46%,–,"0.517 µM [falling, single point]"
COc1cc(C(CCN2CCN(c3ccccc3)CC2)c2c(OC)cc(OC)c3c(C)cc(=O)oc23)cc(OC)c1OC (configuration not stated),-26.4%,–,"29.1 µM [falling, single point]"
COc1cc(OC)cc(-c2c(C#Cc3ccsc3)c3cc(-c4ccc5[nH]ccc5c4)ccc3n2C)c1,-21.1%,–,"0.116 µM [rising, full curve]"
O=C(Nc1ccc(NC(=O)c2ccc([N+](=O)[O-])o2)cc1Cl)c1ccco1,4.7%,–,"3.26 µM [falling, full curve]"
CN(C)S(=O)(=O)c1ccc(C(=O)NCc2nc3ccccc3s2)cc1,3.85%,–,–
CC(=O)c1ccc(-n2nncc2C)cc1,-1.68%,–,–
O=S(=O)(c1ccc(Cl)s1)N1CCN(Cc2ccccc2)CC1,132%,"18.4 µM [rising, single point]","18.4 µM [rising, partial curve]"
CC(C)COc1ccc(C(=O)OC2CC(C)(C)OCC2CN(C)C)cc1 (configuration not stated),-6.44%,–,–
CCc1ccccc1OCC(=O)OCC(=O)N1CC(=O)Nc2ccccc21,57.1%,"16.4 µM [rising, single point]",–
COc1ccc(S(=O)(=O)Nc2ccc(-n3cccc3)cc2)cc1,-62.4%,"29.1 µM [falling, single point]","29.1 µM [falling, single point]"

# Full records, looked up by structure.
# `CC(=O)c1ccc(-n2nncc2C)cc1` as listed: cell number change: -1.68%
# `Nc1cccc2cc(-c3ccccc3)oc12` as listed: cell number change: -8.46%; AC50 [2]: 0.517 µM [falling, single point]
